Consider 42 compounds from the supplement of paper PMC9744312.

Structures can show the parent of a compound that is named as a salt. The list shows a part of the results. The data scatter; read single values as rough.

This test concerns Peyronie's disease tunica albuginea primary fibroblasts. The test is described as follows: cell viability (DRAQ5 nuclear stain) relative to TGF-beta1-only control; higher = more viable cells. To be noted: 10 µM; TGF-beta1 10 ng/mL; 72 h.
Consider `OC[C@H]1O[C@H](O[C@H]2[C@H](O)[C@@H](O)C(O)O[C@@H]2CO)[C@H](O)[C@@H](O)[C@@H]1O` (mixture of isomers) [Maltose], for which the cell viability was found to be 94.5%.
Turning to `O=C1CC2(CCCC2)CC(=O)N1CCCCN1CCN(c2ncccn2)CC1` [Buspirone HCl], the cell viability was 90.4%.
Regarding `CC[C@H]1OC(=O)[C@H](C)[C@@H](O[C@H]2C[C@@](C)(OC)[C@@H](O)[C@H](C)O2)[C@H](C)[C@@H](O[C@@H]2O[C@H](C)C[C@H](N(C)C)[C@H]2O)[C@](C)(O)C[C@@H](C)[C@@H]2N[C@@H](COCCOC)O[C@H]([C@H]2C)[C@]1(C)O` [Dirithromycin], the cell viability amounted to 88.1%.
As for `N#Cc1cc(-c2n[nH]c(-c3ccncc3)n2)ccn1` [Topiroxostat], the figure is 91.6%.
As to `CCCCCCCCCCCCCCCC(=O)O[C@@H]1[C@@H](O)[C@@H](O)[C@@H]([C@H](NC(=O)[C@@H]2C[C@@H](CCC)CN2C)[C@H](C)Cl)O[C@@H]1SC` [Clindamycin palmitate HCl], the cell viability came to 104%.
As for `CO[C@@]1(NC(=O)CSC[C@@H](N)C(=O)O)C(=O)N2C(C(=O)O)=C(CSc3nnnn3C)CS[C@@H]21` [Cefminox Sodium], the figure is 118%.
Take `C[C@H](CCC(=O)O)[C@H]1CC[C@H]2[C@@H]3CC[C@@H]4C[C@H](O)CC[C@]4(C)[C@H]3C[C@H](O)[C@]12C` [Deoxycholic acid]: the cell viability came out at 80.8%.
Regarding `Nc1ccc2cc3ccc(N)cc3nc2c1` [Proflavine Hemisulfate], the cell viability is 70.7%.
As for `CC(=O)N1C[C@H](O)C[C@H]1C(=O)O` [Oxaceprol], the figure is 88.4%.
Take `O=C([O-])[O-].[Na+].[Na+]` [Sodium carbonate]: the cell viability came to 95.3%.
Consider `CCC(=O)c1c(O)cc(O)cc1O` [Flopropione], for which the cell viability was determined as 81.7%.
Regarding `N#Cc1ccnc(N2C(=O)CC[C@H]2C(=O)N(c2cncc(F)c2)[C@H](C(=O)NC2CC(F)(F)C2)c2ccccc2Cl)c1` [Ivosidenib (AG-120)], the cell viability was 103%.
On to `CNC(=O)c1cnn(-c2nc(N)c3ncn([C@@H]4O[C@H](CO)[C@@H](O)[C@H]4O)c3n2)c1` [Regadenoson], for which the cell viability worked out at 81.2%.
For `CO/N=C(\C(=O)N[C@@H]1C(=O)N2C(C(=O)O)=C(Cn3ccc(=N)n3CCO)CS[C@H]12)c1csc(N)n1` [Cefoselis Sulfate], the cell viability turned out to be 97.1%.
Consider `CC1Cc2ccccc2N1NC(=O)c1ccc(Cl)c(S(N)(=O)=O)c1` (configuration not stated) [Indapamide], for which the cell viability was found to be 95.3%.
With `Nc1ccc(S(=O)(=O)Nc2ccnn2-c2ccccc2)cc1` [Sulfaphenazole], the cell viability was determined as 81.1%.
Turning to `CN1CCN(CCOc2cc(OC3CCOCC3)c3c(Nc4c(Cl)ccc5c4OCO5)ncnc3c2)CC1` [Saracatinib (AZD0530)], the cell viability turned out to be 82%.
`O=C(NCC(O)CO)c1c(I)c(C(=O)NCC(O)CO)c(I)c(N(CCO)C(=O)CO)c1I` (configuration not stated) [Ioversol]: the cell viability turned out to be 92%.
`CO/N=C(\C(=O)N[C@@H]1C(=O)N2C(C(=O)O)=C(COC(N)=O)CS[C@H]12)c1ccco1` [Cefuroxime sodium]: the cell viability turned out to be 96.8%.
Turning to `O=C1CN2Cc3c(ccc(Cl)c3Cl)N=C2N1` [Anagrelide HCl], the cell viability came out at 88.2%.
With `CC(C)NCC(O)COc1ccc(COCCOC(C)C)cc1` (configuration not stated) [Bisoprolol fumarate] the figure was 76.9%; with `CN(C)Cc1c(C(=O)NCCOc2ccc(C(=O)NO)cc2)oc2ccccc12`, 43.8%.
`CN1CC[C@H](c2c(O)cc(O)c3c(=O)cc(-c4ccccc4Cl)oc23)[C@H](O)C1` [Flavopiridol (Alvocidib)]: the cell viability stood at 53.2%.
Take `COc1cc(S(=O)(=O)O)ccc1O` [Sulfogaiacol]: the cell viability came out at 91.6%.
For the compound `Nc1nc(Cl)nc2c1ncn2[C@@H]1O[C@H](CO)[C@@H](O)[C@@H]1F` [Clofarabine], the cell viability was 63.5%.
For the compound `CC(C)C(=O)OCC(=O)[C@@]12O[C@H](C3CCCCC3)O[C@@H]1C[C@H]1[C@@H]3CCC4=CC(=O)C=C[C@]4(C)[C@H]3[C@@H](O)C[C@@]12C` [Ciclesonide], the cell viability was determined as 75.4%.
Regarding `CC(C)[C@H]1C(=O)N[C@@H](CCCN=C(N)N)C(=O)NCC(=O)N[C@@H](CC(=O)O)C(=O)N[C@H](Cc2ccccc2)C(=O)N1C`, the cell viability is 63.3%.
With `Nc1nc(=O)c2nc(CNc3ccc(C(=O)N[C@@H](CCC(=O)O)C(=O)O)cc3)cnc2[nH]1` [Folic acid], the cell viability stood at 94.8%.
Consider `C=C1CC[C@H](O)C/C1=C/C=C1\CCC[C@]2(C)[C@@H]([C@H](C)CCCC(C)(C)O)CC[C@@H]12` [Calcifediol], for which the cell viability stood at 75.2%.
As for `CC[C@H]1OC(=O)[C@H](C)[C@@H](O[C@H]2C[C@@](C)(OC)[C@@H](O)[C@H](C)O2)[C@H](C)[C@@H](O[C@@H]2O[C@H](C)C[C@H](N(C)C)[C@H]2O)[C@](C)(O)C[C@@H](C)/C(=N\OCOCCOC)[C@H](C)[C@@H](O)[C@]1(C)O` [Roxithromycin], the figure is 80.6%; as for `Nc1nc(F)nc2c1ncn2[C@@H]1O[C@H](CO)[C@@H](O)[C@@H]1O` [Fludarabine], 81.2%.
With `Clc1ccc(C(Cn2ccnc2)OCc2c(Cl)cccc2Cl)c(Cl)c1` (configuration not stated) [Isoconazole nitrate] the figure was 88.2%; with `NCCC[C@H](N)C(=O)O` [L-Ornithine], 90.2%; with `NC(=O)N1c2ccccc2C=Cc2ccccc21` [Carbamazepine], 89.3%.
Regarding `O=C(CCCCCCNC(=O)c1cnc(N(c2ccccc2)c2ccccc2)nc1)NO` [Ricolinostat (ACY-1215)], the cell viability was 61.2%.
Regarding `NC(CO)(CO)CO` [Trometamol], the cell viability amounted to 93.1%.
As for `c1cnc2cc3c(cc2n1)[C@@H]1CNC[C@H]3C1` [Varenicline Tartrate], the cell viability worked out at 95.1%.
As for `CC(=O)OCC(COC(C)=O)OC(C)=O` [Triacetin], the cell viability worked out at 87.7%.
Turning to `CO[C@H]1/C=C/O[C@@]2(C)Oc3c(C)c(O)c4c(c3C2=O)C2=NC3(CCN(CC(C)C)CC3)NC2=C(NC(=O)/C(C)=C\C=C\[C@H](C)[C@H](O)[C@@H](C)[C@@H](O)[C@@H](C)[C@H](OC(C)=O)[C@@H]1C)C4=O` [Rifabutin], the cell viability worked out at 88.6%.
For `C[N+](C)(C)CCO.O=C([O-])C(O)C(O)C(=O)O` (configuration not stated) [Choline bitartrate], the cell viability stood at 88.1%.
As for `Cn1c(=O)cc(N2CCC[C@@H](N)C2)n(Cc2cc(F)ccc2C#N)c1=O` [Trelagliptin succinate], the figure is 62.6%; as for `Cn1c(=O)cc(N2CCC[C@@H](N)C2)n(Cc2cc(F)ccc2C#N)c1=O` [Trelagliptin], 67.1%.
